These are yes or no findings as the source states them, for the method shown. In cells and extracts the contact can be indirect. These calls come from enrichment with a bait or labelling near it, and not all partners need be listed.

For assay [1], the target named is NME1 (human (endogenous in SK-N-BE(2) and SK-N-AS)) (UniProt P15531). Nature of the assay: affinity purification with mass spectrometry; endogenous NME1 immunoprecipitated with mouse monoclonal nm23-H1 sc-465 antibody and protein A agarose from SK-N-BE(2) and SK-N-AS lysates (20 mM Tris HCl pH 8, 100 mM NaCl, 2 mM EDTA, 1% NP40, Benzonase), 4 °C; eluted proteins digested with trypsin, LC-MS/MS.

The target of assay [2] is NME1 (human (endogenous in SK-N-BE(2) and SK-N-AS)), P15531. The assay is described as above. The note with it: remark: other sources report otherwise.

B1: NME3 (protein, UniProt Q13232 1-169)
chain: MICLVLTIFANLFPAACTGAHERTFLAVKPDGVQRRLVGEIVRRFERKGFKLVALKLVQASEELLREHYAELRERPFYGRLVKYMASGPVVAMVWQGLDVVRTSRALIGATNPADAPPGTIRGDFCIEVGKNLIHGSDSVESARREIALWFRADELLCWEDSAGHWLYE
Consider B1, for which, in assay [1], the binding entry is reported as “binds”.

B2: NME2, P22392 1-152 (protein)
chain: MANLERTFIAIKPDGVQRGLVGEIIKRFEQKGFRLVAMKFLRASEEHLKQHYIDLKDRPFFPGLVKYMNSGPVVAMVWEGLNVVKTGRVMLGETNPADSKPGTIRGDFCIQVGRNIIHGSDSVKSAEKEISLWFKPEELVDYKSCAHDWVYE
In the case of B2, the binding entry in assay [2] is “binds”.

(Values after paper PMC7247550.)
